Measurements as given in the supplement of paper PMC4604168 (melanoma cell lines).
The list shows a part of the results. Repeats are few or missing, and single values can be far off.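 The apoptosis fraction was the count of cleaved-PARP antibody-stained nuclei relative to all DNA-stained nuclei, imaged in 1,536-well plates. Screening doses were set so most cells survived, and baseline and induced cleaved-PARP levels vary greatly across cell lines.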

Tests used:
Test in all cases: cleaved PARP positive nuclei fraction relative to DMSO control; melanoma cells; higher = more apoptosis
Settings in all cases: library dose: low library concentration; 72 h
CBRC034 = system: CBRC034 (line from a melanoma biopsy)
COLO792 = system: COLO792
COLO800 = system: COLO800
COLO829 = system: COLO829
G361 = system: G361
IPC-298 = system: IPC-298
IST-MEL1 = system: IST-MEL1
LB2518-MEL = system: LB2518-MEL
LOXIMVI = system: LOXIMVI

Structure (SMILES) | cleaved PARP positive nuclei fraction (CBRC034) | cleaved PARP positive nuclei fraction (COLO792) | cleaved PARP positive nuclei fraction (COLO800) | cleaved PARP positive nuclei fraction (COLO829) | cleaved PARP positive nuclei fraction (G361) | cleaved PARP positive nuclei fraction (IPC-298) | cleaved PARP positive nuclei fraction (IST-MEL1) | cleaved PARP positive nuclei fraction (LB2518-MEL) | cleaved PARP positive nuclei fraction (LOXIMVI)
Cn1cncc1[C@@](N)(c1ccc(Cl)cc1)c1ccc2c(c1)c(-c1cccc(Cl)c1)cc(=O)n2C [tipifarnib] + C/C(O)=C(\C#N)C(=O)Nc1cc(Br)ccc1Br [LFM-A13] (first compound 0.01 µM, partner dose 2 µM) | 35.8% | 192% | 87.5% | 201% | 68.7% | 416% | 103% | 198% | 81%
CCc1ccc(CCOc2ccc(CC3SC(=O)NC3=O)cc2)nc1 (stereo unspecified) [pioglitazone] + Cc1cc(SCc2sc(-c3ccc(C(F)(F)F)c(F)c3)nc2C)ccc1OCC(=O)O [GW0742] (first compound 2 µM, partner dose 2 µM) | 65.9% | 70.8% | 187% | 64% | 83.2% | 52.9% | 86.4% | 72.2% | 44.7%
CCN(CC)CCCCNc1ncc2cc(-c3cc(OC)cc(OC)c3)c(NC(=O)NC(C)(C)C)nc2n1 + O=C(Oc1ccc([N+](=O)[O-])cc1)N1CCC(C(O)(c2ccc3c(c2)OCO3)c2ccc3c(c2)OCO3)CC1 [JZL184] (first compound 0.1 µM, partner dose 1 µM) | 59.7% | 82.9% | 178% | 121% | 180% | 149% | 75.7% | 74.7% | 72.3%
CC(C)(C)c1cnc(CSc2cnc(NC(=O)C3CCNCC3)s2)o1 + O=C(Oc1ccc([N+](=O)[O-])cc1)N1CCC(C(O)(c2ccc3c(c2)OCO3)c2ccc3c(c2)OCO3)CC1 [JZL184] (first compound 0.01 µM, partner dose 1 µM) | 117% | 83% | 185% | 105% | 120% | 82% | 126% | 87.4% | 38.6%
COc1ccc(-c2ccc3c(N4CCOCC4)nc(N4C[C@@H](C)O[C@@H](C)C4)nc3n2)cc1CO + O=C(Oc1ccc([N+](=O)[O-])cc1)N1CCC(C(O)(c2ccc3c(c2)OCO3)c2ccc3c(c2)OCO3)CC1 [JZL184] (first compound 0.02 µM, partner dose 1 µM) | 117% | 69.3% | 154% | 66.7% | 113% | 38.3% | 66.1% | 75.5% | 100%
O=C(Oc1ccc([N+](=O)[O-])cc1)N1CCC(C(O)(c2ccc3c(c2)OCO3)c2ccc3c(c2)OCO3)CC1 + O=c1cc(-c2cccc3c2Sc2ccccc2S3)oc(N2CCOCC2)c1 [KU55933] (first compound 1 µM, partner dose 1 µM) | 109% | 142% | 49.5% | 59.7% | 93.7% | 148% | 108% | 70.7% | 41.4%
COc1ccc(COc2ccc(Cc3cnc(N)nc3N)cc2OC)cc1 + C/C(O)=C(\C#N)C(=O)Nc1cc(Br)ccc1Br [LFM-A13] (first compound 1 µM, partner dose 2 µM) | 309% | 109% | 164% | 51.8% | 57.7% | 96.6% | 174% | 93.4% | 96.5%
Cc1cc(SCc2sc(-c3ccc(C(F)(F)F)c(F)c3)nc2C)ccc1OCC(=O)O + Cn1cc(/C=C2\C(=O)Nc3cccnc32)c2ccccc21 [GW441756] (first compound 2 µM, partner dose 0.4 µM) | 46.2% | 54.3% | 225% | 102% | 162% | 54.4% | 95.6% | 72% | 62.8%
CCN(CC)CCCCNc1ncc2cc(-c3cc(OC)cc(OC)c3)c(NC(=O)NC(C)(C)C)nc2n1 + C/C(O)=C(\C#N)C(=O)Nc1cc(Br)ccc1Br [LFM-A13] (first compound 0.1 µM, partner dose 2 µM) | 43.7% | 103% | 173% | 61.3% | 126% | 79.9% | 44.6% | 85.8% | 64.1%
CN(NC(=O)CC(=O)NN(C)C(=S)c1ccccc1)C(=S)c1ccccc1 + C/C(O)=C(\C#N)C(=O)Nc1cc(Br)ccc1Br [LFM-A13] (first compound 0.006 µM, partner dose 2 µM) | 78.6% | 86.3% | 282% | 191% | 427% | 43.1% | 101% | 489% | 107%
Cc1cc(N2CCOCC2)cc2[nH]c(-c3c(NC[C@@H](O)c4cccc(Cl)c4)cc[nH]c3=O)nc12 + Cc1cc(SCc2sc(-c3ccc(C(F)(F)F)c(F)c3)nc2C)ccc1OCC(=O)O [GW0742] (first compound 0.2 µM, partner dose 2 µM) | 44.9% | 102% | 293% | 91.4% | 148% | 120% | 48.9% | 98.5% | 27.9%
C[C@]1(c2nc3c(C(N)=O)cccc3[nH]2)CCCN1 [Veliparib] + O=C(Oc1ccc([N+](=O)[O-])cc1)N1CCC(C(O)(c2ccc3c(c2)OCO3)c2ccc3c(c2)OCO3)CC1 [JZL184] (first compound 1.4 µM, partner dose 1 µM) | 88.5% | 136% | 190% | 102% | 76.4% | 41.6% | 55% | 185% | 277%
COc1cc2c(Oc3ccc4[nH]c(C)cc4c3F)ncnc2cc1OCCCN1CCCC1 [cediranib] + C/C(O)=C(\C#N)C(=O)Nc1cc(Br)ccc1Br [LFM-A13] (first compound 0.4 µM, partner dose 2 µM) | 98.8% | 66% | 102% | 78.9% | 23% | 113% | 64.3% | 77.1% | 51.7%
Cc1cc(SCc2sc(-c3ccc(C(F)(F)F)c(F)c3)nc2C)ccc1OCC(=O)O + C/C(O)=C(\C#N)C(=O)Nc1cc(Br)ccc1Br [LFM-A13] (first compound 2 µM, partner dose 2 µM) | 79.2% | 168% | 125% | 53.2% | 103% | 130% | 36.5% | 81.3% | 44.5%
O=C(Oc1ccc([N+](=O)[O-])cc1)N1CCC(C(O)(c2ccc3c(c2)OCO3)c2ccc3c(c2)OCO3)CC1 + CCCCCCCCCCCC1=C(O)C(=O)C=C(O)C1=O [Embelin] (first compound 1 µM, partner dose 1.2 µM) | 124% | 91.8% | 45.7% | 134% | 185% | 169% | 516% | 83% | 74.2%
O=C(O)c1ccc(-c2c[nH]c3ncc(-c4ccccc4)cc23)cc1C1CCCC1 + Cc1cc(SCc2sc(-c3ccc(C(F)(F)F)c(F)c3)nc2C)ccc1OCC(=O)O [GW0742] (first compound 0.16 µM, partner dose 2 µM) | 55.2% | 108% | 189% | 170% | 51.8% | 85% | 70.3% | 82.1% | 52.1%
O=C1NC(=O)/C(=C/c2ccc(-c3ccc(F)cc3O)o2)S1 + O=C(Oc1ccc([N+](=O)[O-])cc1)N1CCC(C(O)(c2ccc3c(c2)OCO3)c2ccc3c(c2)OCO3)CC1 [JZL184] (first compound 1 µM, partner dose 1 µM) | 84.6% | 105% | 99% | 145% | 195% | 126% | 58.8% | 81.9% | 80.5%
O=S(=O)(c1ccccc1)N(CC(F)(F)F)c1ccc(C(O)(C(F)(F)F)C(F)(F)F)cc1 + O=C(Oc1ccc([N+](=O)[O-])cc1)N1CCC(C(O)(c2ccc3c(c2)OCO3)c2ccc3c(c2)OCO3)CC1 [JZL184] (first compound 1.4 µM, partner dose 1 µM) | 107% | 77.5% | 94.8% | 78.2% | 107% | 88.4% | 201% | 42.8% | 49.7%
Nc1cccc2c1CN(C1CCC(=O)NC1=O)C2=O (stereo unspecified) [lenalidomide] + O=C(Oc1ccc([N+](=O)[O-])cc1)N1CCC(C(O)(c2ccc3c(c2)OCO3)c2ccc3c(c2)OCO3)CC1 [JZL184] (first compound 1 µM, partner dose 1 µM) | 66% | 97% | 150% | 119% | 62.6% | 175% | 352% | 139% | 97.5%
C/C(O)=C(\C#N)C(=O)Nc1cc(Br)ccc1Br + Cc1cc([N+](=O)[O-])ccc1NS(=O)(=O)c1cc(Cl)ccc1Cl [FH535] (first compound 2 µM, partner dose 1 µM) | 1010% | 122% | 213% | 139% | 83.3% | 48.6% | 151% | 253% | 58.9%
C[As](C)SC[C@H](NC(=O)CC[C@H](N)C(=O)O)C(=O)NCC(=O)O [Darinaparsin] + Cc1cc(SCc2sc(-c3ccc(C(F)(F)F)c(F)c3)nc2C)ccc1OCC(=O)O [GW0742] (first compound 0.4 µM, partner dose 2 µM) | 79.3% | 62.1% | 76.2% | 81.5% | 76% | 60.5% | 56.6% | 76.3% | 138%
Cc1cc(SCc2sc(-c3ccc(C(F)(F)F)c(F)c3)nc2C)ccc1OCC(=O)O + O=C(Oc1ccc([N+](=O)[O-])cc1)N1CCC(C(O)(c2ccc3c(c2)OCO3)c2ccc3c(c2)OCO3)CC1 [JZL184] (first compound 2 µM, partner dose 1 µM) | 83.9% | 189% | 114% | 139% | 57.2% | 76.2% | 43.6% | 138% | 158%
COc1cc2ncnc(Nc3ccc(Oc4ccccc4)cc3)c2cc1OC + O=C(Oc1ccc([N+](=O)[O-])cc1)N1CCC(C(O)(c2ccc3c(c2)OCO3)c2ccc3c(c2)OCO3)CC1 [JZL184] (first compound 2 µM, partner dose 1 µM) | 38.1% | 131% | 89.4% | 41.1% | 45.1% | 112% | 43.6% | 124% | 30.4%
C[As](C)SC[C@H](NC(=O)CC[C@H](N)C(=O)O)C(=O)NCC(=O)O [Darinaparsin] + N#Cc1c(O)c2c(-c3ccc(-c4ccccc4O)cc3)csc2[nH]c1=O [A769662] (first compound 0.4 µM, partner dose 2 µM) | 90.3% | 136% | 78% | 156% | 58.8% | 106% | 65.2% | 85.8% | 90.2%

Shown as tab-separated lines: part of the list above.
Structure (SMILES)	cleaved PARP positive nuclei fraction (CBRC034)	cleaved PARP positive nuclei fraction (COLO792)	cleaved PARP positive nuclei fraction (COLO800)	cleaved PARP positive nuclei fraction (COLO829)	cleaved PARP positive nuclei fraction (G361)	cleaved PARP positive nuclei fraction (IPC-298)	cleaved PARP positive nuclei fraction (IST-MEL1)	cleaved PARP positive nuclei fraction (LB2518-MEL)	cleaved PARP positive nuclei fraction (LOXIMVI)
Cn1cncc1[C@@](N)(c1ccc(Cl)cc1)c1ccc2c(c1)c(-c1cccc(Cl)c1)cc(=O)n2C [tipifarnib] + C/C(O)=C(\C#N)C(=O)Nc1cc(Br)ccc1Br [LFM-A13] (first compound 0.01 µM, partner dose 2 µM)	35.8%	192%	87.5%	201%	68.7%	416%	103%	198%	81%
CCc1ccc(CCOc2ccc(CC3SC(=O)NC3=O)cc2)nc1 (stereo unspecified) [pioglitazone] + Cc1cc(SCc2sc(-c3ccc(C(F)(F)F)c(F)c3)nc2C)ccc1OCC(=O)O [GW0742] (first compound 2 µM, partner dose 2 µM)	65.9%	70.8%	187%	64%	83.2%	52.9%	86.4%	72.2%	44.7%
